Data as given in PubChem BioAssay AID1224826 (NIAID, 2016).
Test: 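Regulators of Tlr4 signalling leading to Tnf-alpha expression in macrophages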 (primary screen). System: RAW264.7 G9 macrophages from mouse bearing reporters for p65 (GFP) and the Tnf promoter (mCherry). Knock-down reagent: siRNA pool against mouse genes, 100 nM. Timing: 16 h of LPS stimulation, after 2 days of siRNA transfection. Treatment: bacterial lipopolysaccharide (Salmonella minnesota R595), 10 ng/ml. Measured: 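Nuclear mCherry signal of the Tnf promoter reporter measured by imaging after background removal, scaled to each plate median and turned into robust z-scores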. Reading the numbers: Tnf reporter robust z-score: higher = stronger Tnf promoter reporter signal after LPS; Tnf reporter intensity: higher = stronger Tnf promoter reporter signal. Call rule: 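a well counts as active at a score of -1.3 or below (Tlr4 knock-down control median) or above 3 (raised signal); controls and wells holding fewer than 50 cells are excluded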. Meaning of the calls: active = Tnf reporter clearly lowered or raised; inactive = no clear change in Tnf reporter.
This is one part, drawn at random, of about 17,000 deposited reagents. About 1,110 of all reagents (6.6%) were called active. 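Active means lowered or raised reporter signal; replicate intensities are raw and not normalised per plate.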 Unmarked entries are inactive.

| target | Tnf reporter robust z-score | fewer than 50 cells in well | Tnf reporter intensity, replicate 1 | Tnf reporter intensity, replicate 2 |
| --- | --- | --- | --- | --- |
| Art3 | -0.94 | enough cells in well | 144 | 82.6 |
| Scg3 | -0.82 | enough cells in well | 228 | 146 |
| 4930503E14Rik | 0.21 | enough cells in well | 240 | 65.2 |
| Tom1 | -0.55 | enough cells in well | 168 | 123 |
| Frem1 | 0.3 | enough cells in well | 208 | 178 |
| Dync2li1 | – | fewer than 50 cells per well; well left out of calls | 185 | 44.3 |
| Myo15a | -0.1 | enough cells in well | 255 | 198 |
| Slc16a10 | -0.52 | enough cells in well | 81.1 | 86.1 |
| Lin7c | -0.52 | enough cells in well | 177 | 103 |
| B3gnt5 | 0.19 | enough cells in well | 211 | 147 |
| Tbx22 | -0.14 | enough cells in well | 212 | 134 |
| Trappc5 | 0.69 | enough cells in well | 117 | 139 |
| Bcorl1 | 1.05 | enough cells in well | 262 | 301 |
| Plac9 | -0.59 | enough cells in well | 145 | 123 |
| Inpp5f | 0.02 | enough cells in well | 232 | 158 |
| Slc25a4 | -0.56 | enough cells in well | 180 | 114 |
| Ppfia4 | 0.32 | enough cells in well | 314 | 177 |
| Kdelr2 | 0.27 | enough cells in well | 242 | 179 |
| Cilp | -1.1 | enough cells in well | 91.9 | 126 |
| Zfp932 | – | fewer than 50 cells per well; well left out of calls | 137 | 85.4 |
| Rbm45 | 0.88 | enough cells in well | 248 | 321 |
| Rex2 | 0.61 | enough cells in well | 158 | 150 |
| Thop1 | 1.79 | enough cells in well | 189 | 149 |
| H2-T13 | 1.64 | enough cells in well | 204 | 301 |
| 4930566N20Rik | – | fewer than 50 cells per well; well left out of calls | 200 | 46.7 |
| Slc22a13b | -0.46 | enough cells in well | 193 | 116 |
| Srpx2 | 1.11 | enough cells in well | 428 | 87.2 |
| Hc | -0.59 | enough cells in well | 166 | 247 |
| Zc3hav1l | 0.58 | enough cells in well | 235 | 168 |
| Hnrnph2 | -0.73 | enough cells in well | 210 | 106 |
| Itga2 | -0.03 | enough cells in well | 214 | 166 |
| Rnf32 | – | fewer than 50 cells per well; well left out of calls | 49.7 | 36.6 |
| Fscn3 | 0.93 | enough cells in well | 370 | 279 |
| Ccne1 | 1.69 | enough cells in well | 421 | 293 |
| Dhx16 | -0.4 | enough cells in well | 199 | 180 |
| Ncdn | -0.95 | enough cells in well | 140 | 80.2 |
| Plg | -0.5 | enough cells in well | 195 | 169 |
| Iqcc | 3.37 (active) | enough cells in well | 440 | 444 |
| St3gal6 | 3.18 (active) | enough cells in well | 205 | 215 |
| Ell3 | -0.42 | enough cells in well | 163 | 95.1 |
| Cdk1 | – | fewer than 50 cells per well; well left out of calls | 90 | 93.6 |
| Sh3gl1 | 0.26 | enough cells in well | 277 | 257 |
| Txndc11 | 4.15 (active) | enough cells in well | 406 | 31.7 |
| Mgat1 | 0.05 | enough cells in well | 187 | 154 |
| Map1a | -0.28 | enough cells in well | 290 | 143 |
| Irf2 | 0.03 | enough cells in well | 199 | 183 |
| Setd7 | -0.76 | enough cells in well | 235 | 137 |
| Cbx8 | 0.47 | enough cells in well | 244 | 281 |
| Sh3gl3 | -0.44 | enough cells in well | 225 | 194 |
| Pcdha4 | 2.44 | enough cells in well | 290 | 221 |
| Itpk1 | -0.69 | enough cells in well | 138 | 125 |
| Adra2a | 0.04 | enough cells in well | 197 | 337 |
| Caly | -1.16 | enough cells in well | 135 | 132 |
| Gfer | -0.14 | enough cells in well | 244 | 225 |
| Tmprss11g | -1.04 | enough cells in well | 123 | 117 |
| Pax1 | -1.13 | enough cells in well | 162 | 103 |
| Klc2 | -0.83 | enough cells in well | 161 | 116 |
| Zgpat | -0.44 | enough cells in well | 173 | 181 |

Reprinted from above, 7 entries:
| target | Tnf reporter robust z-score | fewer than 50 cells in well | Tnf reporter intensity, replicate 1 | Tnf reporter intensity, replicate 2 |
| --- | --- | --- | --- | --- |
| Frem1 | 0.3 | enough cells in well | 208 | 178 |
| Dync2li1 | – | fewer than 50 cells per well; well left out of calls | 185 | 44.3 |
| Myo15a | -0.1 | enough cells in well | 255 | 198 |
| Slc16a10 | -0.52 | enough cells in well | 81.1 | 86.1 |
| Lin7c | -0.52 | enough cells in well | 177 | 103 |
| B3gnt5 | 0.19 | enough cells in well | 211 | 147 |
| Tbx22 | -0.14 | enough cells in well | 212 | 134 |
